Assay results: patent US10265275B2, “Phenolic coatings and methods of making and using same” (Northwestern University, priority 2013, dated 2019)
Some compounds share one wording; it may come from a single statement.

What was measured:
[1] = Coating ability on TiO2 at pH 3-9, XPS Ti2p signal attenuation; details: for capable of forming coatings between pH 3 and 9: TiO2, XPS, at least 20% signal reduction; for Optimal Coating pH: pH with the greatest signal attenuation in the XPS trials
[2] = Coating deposition from purified polyphenols, silver metallization; details: purified compounds, polysulfone (FIG. 3)
[3] = Coating thickness on TiO2 by ellipsometry
[4] = Effect of salt on coating formation on SiO2, XPS Si2p signal; details: 48 h
[5] = Effect of salt on coating formation on TiO2, XPS Ti2p signal; details: for able to coat both TiO2 and SiO2 with at least one of the experimental conditions: TiO2 and SiO2, salts of Tables 8-9; for Ti2p Signal Strength (%): 48 h
[6] = Coating ability on a wide range of substrate materials (XPS, ellipsometry, silver deposition); details: 600 mM NaCl; for Coating Formed? SiO2: substrate SiO2 (silica); for Coating Formed? SiO2 / Coating Formed? Au / Coating Formed? Nylon / Coating Formed? PEEK / Coating Formed? PPS / Coating Formed? PC / Coating Formed? PS / Coating Formed? PTFE / Coating Formed? SS: each precursor at its own pH; for Coating Formed? TiO2: substrate TiO2, each precursor at its own pH (TA 7, PG 7, catechol 8, catechin 9, HHQ 6, EGCG 7); for Coating Formed? Au: substrate gold; for Coating Formed? Nylon: substrate nylon 6-12; for Coating Formed? PEEK: substrate poly(ether ether ketone); for Coating Formed? PPS: substrate poly(p-phenylene sulfide); for Coating Formed? PC: substrate polycarbonate; for Coating Formed? PS: substrate polystyrene; for Coating Formed? PTFE: substrate polytetrafluoroethylene; for Coating Formed? SS: substrate stainless steel
[7] = pH 3, precursor 1 mg/mL, 24 h, 600 mM NaCl
[8] = pH 4, precursor 1 mg/mL, 24 h, 600 mM NaCl
[9] = pH 5, precursor 1 mg/mL, 24 h, 600 mM NaCl
[10] = pH 6, precursor 1 mg/mL, 24 h, 600 mM NaCl
[11] = pH 7, precursor 1 mg/mL, 24 h, 600 mM NaCl
[12] = pH 8, precursor 1 mg/mL, 24 h, 600 mM NaCl
[13] = pH 9, precursor 1 mg/mL, 24 h, 600 mM NaCl
[14] = pH 6, Ca2+ = 600 mM CaCl2, 1 mg/mL
[15] = pH 6, Mg2+ = 600 mM MgCl2, 1 mg/mL
[16] = pH 7, Ca2+ = 600 mM CaCl2, 1 mg/mL
[17] = pH 7, Cu2+ = 100 μM CuCl2 + 600 mM NaCl, 1 mg/mL
[18] = pH 7, Mg2+ = 600 mM MgCl2, 1 mg/mL
[19] = pH 7, Na+ = 600 mM NaCl, 1 mg/mL
[20] = pH 7, Zn2+ = 100 μM ZnCl2 + 600 mM NaCl, 1 mg/mL
[21] = pH 6, Cu2+ = 100 μM CuCl2 + 600 mM NaCl, 1 mg/mL
[22] = pH 6, Na+ = 600 mM NaCl, 1 mg/mL
[23] = pH 6, Zn2+ = 100 μM ZnCl2 + 600 mM NaCl, 1 mg/mL

Row | Compound | capable of forming coatings between pH 3 and 9 [1] | Ti2p Signal Strength (%) [1, 7] | Ti2p Signal Strength (%) [1, 8] | Ti2p Signal Strength (%) [1, 9] | Ti2p Signal Strength (%) [1, 10] | Ti2p Signal Strength (%) [1, 11] | Ti2p Signal Strength (%) [1, 12] | Ti2p Signal Strength (%) [1, 13] | Optimal Coating pH [1] | able to coat both TiO2 and SiO2 with at least one of the experimental conditions [5] | Coating Formed? SiO2 [6] | Coating Formed? TiO2 [6] | Coating Formed? Au [6] | Coating Formed? Nylon [6] | Coating Formed? PEEK [6] | Coating Formed? PPS [6] | Coating Formed? PC [6] | Coating Formed? PS [6] | Coating Formed? PTFE [6] | Coating Formed? SS [6] | also measured
1 | Oc1cc(O)c2c(c1)O[C@H](c1cc(O)c(O)c(O)c1)[C@H](O)C2 [EGC, epigallocatechin] | capable of forming coatings | – | – | – | – | – | – | – | – | – | – | – | – | – | – | – | – | – | – | – | Ti2p Signal Strength (%) ([1]; pH 7, precursor 0.1 mg/mL): 90.2%; Ti2p Signal Strength (%) ([1]; pH 8, precursor 0.1 mg/mL): 84.1%; Ti2p Signal Strength (%) ([1]; pH 9, precursor 0.1 mg/mL): 41.2%; coating deposition, qualitative observation after silver metallization [2]: coatings are deposited as expected
2 | O=C(OC[C@H]1O[C@@H](OC(=O)c2cc(O)c(O)c(OC(=O)c3cc(O)c(O)c(O)c3)c2)[C@H](OC(=O)c2cc(O)c(O)c(OC(=O)c3cc(O)c(O)c(O)c3)c2)[C@@H](OC(=O)c2cc(O)c(O)c(OC(=O)c3cc(O)c(O)c(O)c3)c2)[C@@H]1OC(=O)c1cc(O)c(O)c(OC(=O)c2cc(O)c(O)c(O)c2)c1)c1cc(O)c(O)c(OC(=O)c2cc(O)c(O)c(O)c2)c1 [Tannic acid, tannic acid] | capable of forming coatings | 65.2% | 56.8% | 62.9% | 0.0% | 0.0% | 62.9% | 72.7% | 7.0 | able to coat both TiO2 and SiO2 | No | Yes | Yes | Yes | Yes | Yes | Yes | Yes | Yes | Yes | Coating Thickness (nm) ([3]; TiO2, 24 h, pH 6): 5.8 ± 0.9 nm; Coating Thickness (nm) ([3]; TiO2, 24 h, pH 7): 109.3 ± 7.1 nm; Si2p Signal Strength (%) [4, 14]: 102.7%; Si2p Signal Strength (%) [4, 15]: 83.8%; Si2p Signal Strength (%) [4, 16]: 105.4%; Si2p Signal Strength (%) [4, 17]: 103.0%; Si2p Signal Strength (%) [4, 18]: 50.3%; Si2p Signal Strength (%) [4, 19]: 111.9%; Si2p Signal Strength (%) [4, 20]: 90.6%; Ti2p Signal Strength (%) [5, 14]: 0.0%; Ti2p Signal Strength (%) [5, 15]: 0.0%; Ti2p Signal Strength (%) [5, 16]: 11.4%; Ti2p Signal Strength (%) [5, 17]: 0.0%; Ti2p Signal Strength (%) [5, 18]: 88.9%; Ti2p Signal Strength (%) [5, 19]: 0.0%; Ti2p Signal Strength (%) [5, 20]: 0.0%
3 | Oc1cccc(O)c1O [PG, 1,2,3-trihydroxybenzene] | capable of forming coatings | 100.9% | 96.6% | 87.6% | 35.3% | 11.0% | 58.0% | 86.9% | 7.0 | able to coat both TiO2 and SiO2 | No | Yes | Yes | Yes | Yes | Yes | Yes | Yes | Yes | Yes | Coating Thickness (nm) ([3]; TiO2, 24 h, pH 7): 19.0 ± 1.9 nm; Si2p Signal Strength (%) [4, 16]: 2.2%; Si2p Signal Strength (%) [4, 18]: 0.0%; Si2p Signal Strength (%) [4, 19]: 100.1%; Si2p Signal Strength (%) [4, 20]: 108.7%; Ti2p Signal Strength (%) [5, 16]: 0.0%; Ti2p Signal Strength (%) [5, 17]: 0.0%; Ti2p Signal Strength (%) [5, 18]: 0.0%; Ti2p Signal Strength (%) [5, 19]: 12.6%; Ti2p Signal Strength (%) [5, 20]: 3.9%
4 | O=C(O[C@@H]1Cc2c(O)cc(O)cc2O[C@@H]1c1ccc(O)c(O)c1)c1cc(O)c(O)c(O)c1 [ECG, epicatechin gallate] | – | – | – | – | – | – | – | – | – | – | – | – | – | – | – | – | – | – | – | – | coating deposition, qualitative observation after silver metallization [2]: coatings are deposited as expected
5 | Oc1ccc(O)c(O)c1 [HHQ, hydroxyhydroquinone] | capable of forming coatings | 18.6% | 32.9% | 22.0% | 1.1% | 51.6% | 88.2% | 76.8% | 6.0 | able to coat both TiO2 and SiO2 | No | Yes | Yes | Yes | Yes | Yes | Yes | Yes | Yes | Yes | Coating Thickness (nm) ([3]; TiO2, 48 h, pH 6): 48.8 ± 10.5 nm; Si2p Signal Strength (%) [4, 14]: 1.5%; Si2p Signal Strength (%) [4, 21]: 93.5%; Si2p Signal Strength (%) [4, 15]: 80.5%; Si2p Signal Strength (%) [4, 22]: 94.9%; Si2p Signal Strength (%) [4, 23]: 104.8%; Ti2p Signal Strength (%) [5, 14]: 0.0%; Ti2p Signal Strength (%) [5, 21]: 14.1%; Ti2p Signal Strength (%) [5, 15]: 0.0%; Ti2p Signal Strength (%) [5, 22]: 0.0%; Ti2p Signal Strength (%) [5, 23]: 5.0%
6 | epigallocatechin-3-gallate [EGCG] | capable of forming coatings | 70.1% | 71.5% | 71.8% | 67.7% | 0.3% | 45.5% | 83.8% | 7.0 | able to coat both TiO2 and SiO2 | No | Yes | Yes | Yes | Yes | Yes | Yes | Yes | Yes | Yes | Ti2p Signal Strength (%) ([1]; pH 3, precursor 0.1 mg/mL): 81.5%; Ti2p Signal Strength (%) ([1]; pH 4, precursor 0.1 mg/mL): 87.4%; Ti2p Signal Strength (%) ([1]; pH 5, precursor 0.1 mg/mL): 82.5%; Ti2p Signal Strength (%) ([1]; pH 6, precursor 0.1 mg/mL): 52.4%; Ti2p Signal Strength (%) ([1]; pH 7, precursor 0.1 mg/mL): 8.7%; Ti2p Signal Strength (%) ([1]; pH 8, precursor 0.1 mg/mL): 43.8%; Ti2p Signal Strength (%) ([1]; pH 9, precursor 0.1 mg/mL): 91.8%; Coating Thickness (nm) ([3]; TiO2, 48 h, pH 7): 34.3 ± 7.2 nm; Si2p Signal Strength (%) [4, 16]: 99.8%; Si2p Signal Strength (%) [4, 17]: 107.1%; Si2p Signal Strength (%) [4, 18]: 20.6%; Si2p Signal Strength (%) [4, 19]: 108.5%; Si2p Signal Strength (%) [4, 20]: 104.1%; coating deposition, qualitative observation after silver metallization [2]: coatings are deposited as expected; Ti2p Signal Strength (%) [5, 16]: 0.0%; Ti2p Signal Strength (%) [5, 17]: 0.0%; Ti2p Signal Strength (%) [5, 18]: 0.0%; Ti2p Signal Strength (%) [5, 19]: 0.0%; Ti2p Signal Strength (%) [5, 20]: 13.0%
